Taken from: PubChem BioAssay AID1224830 (NIAID, 2016)
Purpose: 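Host factors that control LPS-induced TNF expression in human macrophages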 (primary screen). Cells: human THP-1 monocytic leukaemia cells, TNF dual-luciferase reporter clone, PMA-differentiated to macrophage-like cells. Reagents: siRNA pool against human genes, 50 nM. Duration: LPS for 4 h, given about 3 days after siRNA transfection. Conditions: bacterial LPS (TLR4 ligand), 10 ng/ml. Read-out: 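TNF firefly reporter luminescence divided by renilla, normalised to the plate median, then turned into a robust z-score for each replicate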. Reading the numbers: TNF reporter robust z-score: higher = stronger TNF reporter response to LPS. Active means: 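a well is active when its z-score exceeds 2.8 or falls below -1.5; control wells carry no call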.
The deposit covers about 18,000 reagents; below is an unselected part. About 2,900 of them (16%) count as active. 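Calls are made per well; low scores hint the gene aids the LPS response, high scores that it dampens it.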 Repeated entries: four replicate wells of each siRNA pool.

Silencing of SIGLEC15 gave: TNF reporter robust z-score 0.44; inactive.
After knock-down of SIGLEC15 the results were TNF reporter robust z-score -0.61; inactive.
Against SIGLEC15, the entry reads TNF reporter robust z-score -0.09; inactive.
Depletion of SIGLEC15 gave: TNF reporter robust z-score -0.79; inactive.
NHLH1 showed TNF reporter robust z-score -0.65; inactive.
Depletion of NHLH1 resulted in: TNF reporter robust z-score 1.64; inactive.
With knock-down of NHLH1, the screen gave TNF reporter robust z-score 0.41; inactive.
Depletion of NHLH1 resulted in: TNF reporter robust z-score 0.95; inactive.
TSACC gave TNF reporter robust z-score 2.01; inactive.
For TSACC, the entry reads TNF reporter robust z-score 0.33; inactive.
With knock-down of TSACC, the screen gave TNF reporter robust z-score 1.01; inactive.
For TSACC, the entry reads TNF reporter robust z-score -1.01; inactive.
Silencing of F2R came out at: TNF reporter robust z-score -0.48; inactive.
Depletion of F2R gave: TNF reporter robust z-score 2.12; inactive.
Knock-down of F2R gave: TNF reporter robust z-score 0.78; inactive.
After knock-down of F2R, the screen gave TNF reporter robust z-score 0.19; inactive.
Depletion of EQTN gave: TNF reporter robust z-score -0.66; inactive.
EQTN showed TNF reporter robust z-score -1.02; inactive.
EQTN showed TNF reporter robust z-score -0.25; inactive.
With knock-down of EQTN, the screen gave TNF reporter robust z-score 0.7; inactive.

Targets above whose target name starts with S or s:
SIGLEC15: TNF reporter robust z-score = 0.44; call = inactive
SIGLEC15: TNF reporter robust z-score = -0.61; call = inactive
SIGLEC15: TNF reporter robust z-score = -0.09; call = inactive
SIGLEC15: TNF reporter robust z-score = -0.79; call = inactive
